Where a name gives a salt, the structure may show the parent alone. This is one part of the list. Most entries show no effect beyond the scatter of the controls.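 Using flow cytometry, the assay measures the median γH2AX antibody signal in S-phase Reh cells (a human leukemia line). Each score is the number of standard deviations from the median difference of paired plate sets. Candidate hits scored above 2.5; compounds scoring below -2 lowered MK1775-induced damage.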
test system: Reh; test: Z' of S-phase gammaH2AX difference (drug + MK1775 minus drug alone) (Z-score); higher = stronger synergistic S-phase DNA damage with MK1775; settings: MK1775 concentration 400 nM; first compound 10 µM; 4 h

SMILES | Z' of S-phase gammaH2AX difference (Z-score)
C[N+]1(C)CCN(c2ccccc2)CC1 [1,1-Dimethyl-4-phenyl-piperazinium iodide] + C=CCn1c(=O)c2cnc(Nc3ccc(N4CCN(C)CC4)cc3)nc2n1-c1cccc(C(C)(C)O)n1 [MK1775] | inactive: -0.857
NC(=O)COc1c(F)cc(SCCNS(=O)(=O)c2ccccc2)cc1F + C=CCn1c(=O)c2cnc(Nc3ccc(N4CCN(C)CC4)cc3)nc2n1-c1cccc(C(C)(C)O)n1 [MK1775] | inactive: 0.0534
CCCN1CCC[C@H](c2cccc(O)c2)C1 [R(+)-3PPP hydrochloride] + C=CCn1c(=O)c2cnc(Nc3ccc(N4CCN(C)CC4)cc3)nc2n1-c1cccc(C(C)(C)O)n1 [MK1775] | inactive: -0.121
NCCc1ccc(O)cc1 [4-Hydroxyphenethylamine hydrochloride] + C=CCn1c(=O)c2cnc(Nc3ccc(N4CCN(C)CC4)cc3)nc2n1-c1cccc(C(C)(C)O)n1 [MK1775] | inactive: 0.591
CN(C(=O)Cc1ccc(Cl)c(Cl)c1)C(CN1CCCC1)c1cccc(OCC(=O)O)c1 (stereo not given) [ICI 204,448 hydrochloride] + C=CCn1c(=O)c2cnc(Nc3ccc(N4CCN(C)CC4)cc3)nc2n1-c1cccc(C(C)(C)O)n1 [MK1775] | inactive: 0.284
CCn1cc(C(=O)O)c(=O)c2cc3c(cc21)OCO3 [Oxolinic acid] + C=CCn1c(=O)c2cnc(Nc3ccc(N4CCN(C)CC4)cc3)nc2n1-c1cccc(C(C)(C)O)n1 [MK1775] | inactive: -0.446
C[N+]1(C)[C@@H]2C[C@@H](OC(=O)[C@H](CO)c3ccccc3)C[C@H]1[C@@H]1O[C@@H]12 [(-)-Scopolamine methyl bromide] + C=CCn1c(=O)c2cnc(Nc3ccc(N4CCN(C)CC4)cc3)nc2n1-c1cccc(C(C)(C)O)n1 [MK1775] | inactive: -1.35
C[C@@H]1O[C@@H](O[C@H]2C[C@@H](O)[C@]3(CO)[C@H]4[C@H](O)C[C@]5(C)[C@@H](C6=CC(=O)OC6)CC[C@]5(O)[C@@H]4CC[C@]3(O)C2)[C@H](O)[C@H](O)[C@H]1O [Ouabain] + C=CCn1c(=O)c2cnc(Nc3ccc(N4CCN(C)CC4)cc3)nc2n1-c1cccc(C(C)(C)O)n1 [MK1775] | inactive: -0.505
C[C@@H](N)Cc1cnc[nH]1 [Histamine, R(-)-alpha-methyl-, dihydrochloride] + C=CCn1c(=O)c2cnc(Nc3ccc(N4CCN(C)CC4)cc3)nc2n1-c1cccc(C(C)(C)O)n1 [MK1775] | inactive: 0.644
Clc1cc(I)cc(Cl)c1NC1=NCCN1 [p-Iodoclonidine hydrochloride] + C=CCn1c(=O)c2cnc(Nc3ccc(N4CCN(C)CC4)cc3)nc2n1-c1cccc(C(C)(C)O)n1 [MK1775] | inactive: -0.085
NNC(=O)c1ccc(O)cc1 [4-Hydroxybenzhydrazide] + C=CCn1c(=O)c2cnc(Nc3ccc(N4CCN(C)CC4)cc3)nc2n1-c1cccc(C(C)(C)O)n1 [MK1775] | inactive: 1.6
COc1ccc(Cc2nccc3cc(OC)c(OC)cc23)cc1OC [Papaverine hydrochloride] + C=CCn1c(=O)c2cnc(Nc3ccc(N4CCN(C)CC4)cc3)nc2n1-c1cccc(C(C)(C)O)n1 [MK1775] | inactive: 1.29
NCCCP(=O)(O)O [3-Aminopropylphosphonic acid] + C=CCn1c(=O)c2cnc(Nc3ccc(N4CCN(C)CC4)cc3)nc2n1-c1cccc(C(C)(C)O)n1 [MK1775] | inactive: -0.254
CNCCc1c[nH]c2ccc(O)cc12 [N-omega-Methyl-5-hydroxytryptamine oxalate salt] + C=CCn1c(=O)c2cnc(Nc3ccc(N4CCN(C)CC4)cc3)nc2n1-c1cccc(C(C)(C)O)n1 [MK1775] | inactive: -0.825
O=C[C@H](Cl)[C@@H](O)[C@H](O)[C@H](O)CO [2-Chloro-2-deoxy-D-glucose] + C=CCn1c(=O)c2cnc(Nc3ccc(N4CCN(C)CC4)cc3)nc2n1-c1cccc(C(C)(C)O)n1 [MK1775] | inactive: 0.0735
NNC(N)=O [Semicarbazide hydrochloride] + C=CCn1c(=O)c2cnc(Nc3ccc(N4CCN(C)CC4)cc3)nc2n1-c1cccc(C(C)(C)O)n1 [MK1775] | inactive: -0.14
COC(=O)C1=CCCN(C)C1 [Arecoline hydrobromide] + C=CCn1c(=O)c2cnc(Nc3ccc(N4CCN(C)CC4)cc3)nc2n1-c1cccc(C(C)(C)O)n1 [MK1775] | inactive: -0.501
C=C(C)[C@H]1Cc2c(ccc3c2O[C@@H]2COc4cc(OC)c(OC)cc4[C@@H]2C3=O)O1 [Rotenone] + C=CCn1c(=O)c2cnc(Nc3ccc(N4CCN(C)CC4)cc3)nc2n1-c1cccc(C(C)(C)O)n1 [MK1775] | inactive: -0.509

SMILES | Z' of S-phase gammaH2AX difference (Z-score)
Fc1ccc(C(OCCN2CCN(CCCc3ccccc3)CC2)c2ccc(F)cc2)cc1 + C=CCn1c(=O)c2cnc(Nc3ccc(N4CCN(C)CC4)cc3)nc2n1-c1cccc(C(C)(C)O)n1 [MK1775] | inactive: -0.634
N[C@@H](CCl)C(=O)O [beta-Chloro-L-alanine hydrochloride] + C=CCn1c(=O)c2cnc(Nc3ccc(N4CCN(C)CC4)cc3)nc2n1-c1cccc(C(C)(C)O)n1 [MK1775] | inactive: 0.795
CC(N)Cc1c[nH]c2ccc(O)cc12 (stereo not drawn) [alpha-Methyl-5-hydroxytryptamine maleate] + C=CCn1c(=O)c2cnc(Nc3ccc(N4CCN(C)CC4)cc3)nc2n1-c1cccc(C(C)(C)O)n1 [MK1775] | inactive: -1.01
CN(N=O)c1cc(O)ccc1O [Dephostatin] + C=CCn1c(=O)c2cnc(Nc3ccc(N4CCN(C)CC4)cc3)nc2n1-c1cccc(C(C)(C)O)n1 [MK1775] | inactive: 0.415
Oc1cc2c(cc1O)[C@H]1c3ccccc3CN[C@@H]1CC2 (racemic) [Dihydrexidine hydrochloride] + C=CCn1c(=O)c2cnc(Nc3ccc(N4CCN(C)CC4)cc3)nc2n1-c1cccc(C(C)(C)O)n1 [MK1775] | inactive: 0.202
N[C@H](CCCCCP(=O)(O)O)C(=O)O [D(-)-2-Amino-7-phosphonoheptanoic acid] + C=CCn1c(=O)c2cnc(Nc3ccc(N4CCN(C)CC4)cc3)nc2n1-c1cccc(C(C)(C)O)n1 [MK1775] | inactive: 0.0969
CC(=O)Nc1ccc(OC[C@](C)(O)C(=O)Nc2ccc([N+](=O)[O-])c(C(F)(F)F)c2)cc1 [Andarine (GTX-007)] + C=CCn1c(=O)c2cnc(Nc3ccc(N4CCN(C)CC4)cc3)nc2n1-c1cccc(C(C)(C)O)n1 [MK1775] | inactive: 0.18
CCCN(CCC)C1CCc2ccc(O)cc2C1 (stereo not drawn) [R-(+)-7-Hydroxy-DPAT hydrobromide] + C=CCn1c(=O)c2cnc(Nc3ccc(N4CCN(C)CC4)cc3)nc2n1-c1cccc(C(C)(C)O)n1 [MK1775] | inactive: 1.5
CCCN(CCC)C1CCc2ccc(O)cc2C1 (stereo not given) [(?)-7-Hydroxy-DPAT hydrobromide] + C=CCn1c(=O)c2cnc(Nc3ccc(N4CCN(C)CC4)cc3)nc2n1-c1cccc(C(C)(C)O)n1 [MK1775] | inactive: 0.318
O=C1CCCN1CC#CCN1CCCC1 [Oxotremorine sesquifumarate salt] + C=CCn1c(=O)c2cnc(Nc3ccc(N4CCN(C)CC4)cc3)nc2n1-c1cccc(C(C)(C)O)n1 [MK1775] | inactive: 0.213
CCCCc1ccc(C(=O)O)nc1 [Fusaric acid] + C=CCn1c(=O)c2cnc(Nc3ccc(N4CCN(C)CC4)cc3)nc2n1-c1cccc(C(C)(C)O)n1 [MK1775] | inactive: -0.814
CCCN1C[C@H](CSC)C[C@@H]2c3cccc4[nH]cc(c34)C[C@H]21 [Pergolide methanesulfonate] + C=CCn1c(=O)c2cnc(Nc3ccc(N4CCN(C)CC4)cc3)nc2n1-c1cccc(C(C)(C)O)n1 [MK1775] | inactive: -0.767
N.N.[Cl][Pt][Cl] [Cisplatin] + C=CCn1c(=O)c2cnc(Nc3ccc(N4CCN(C)CC4)cc3)nc2n1-c1cccc(C(C)(C)O)n1 [MK1775] | inactive: 0.156
Oc1ccc2c3c1O[C@H]1c4[nH]c5c(c4C[C@@]4(O)[C@@H](C2)N(CC2CC2)CC[C@]314)C[C@@]1(O)[C@H]2Cc3ccc(O)c4c3[C@@]1(CCN2CC1CC1)[C@H]5O4 [nor-Binaltorphimine dihydrochloride] + C=CCn1c(=O)c2cnc(Nc3ccc(N4CCN(C)CC4)cc3)nc2n1-c1cccc(C(C)(C)O)n1 [MK1775] | inactive: 1.15
C[N+](C)(C)CC#CCOC(=O)Nc1cccc(Cl)c1 + C=CCn1c(=O)c2cnc(Nc3ccc(N4CCN(C)CC4)cc3)nc2n1-c1cccc(C(C)(C)O)n1 [MK1775] | inactive: 0.251
CN1C[C@@H](NS(=O)(=O)N(C)C)C[C@@H]2c3cccc4c3c(cn4C)C[C@H]21 [Mesulergine hydrochloride] + C=CCn1c(=O)c2cnc(Nc3ccc(N4CCN(C)CC4)cc3)nc2n1-c1cccc(C(C)(C)O)n1 [MK1775] | inactive: -0.17
Cc1ncc(CNC(=O)N(CCCl)N=O)c(N)n1 [Nimustine hydrochloride] + C=CCn1c(=O)c2cnc(Nc3ccc(N4CCN(C)CC4)cc3)nc2n1-c1cccc(C(C)(C)O)n1 [MK1775] | inactive: 0.131

Two entries from above, as comma-separated lines:
SMILES,Z' of S-phase gammaH2AX difference (Z-score)
Oc1cc2c(cc1O)[C@H]1c3ccccc3CN[C@@H]1CC2 (racemic) [Dihydrexidine hydrochloride] + C=CCn1c(=O)c2cnc(Nc3ccc(N4CCN(C)CC4)cc3)nc2n1-c1cccc(C(C)(C)O)n1 [MK1775],inactive: 0.202
N[C@H](CCCCCP(=O)(O)O)C(=O)O [D(-)-2-Amino-7-phosphonoheptanoic acid] + C=CCn1c(=O)c2cnc(Nc3ccc(N4CCN(C)CC4)cc3)nc2n1-c1cccc(C(C)(C)O)n1 [MK1775],inactive: 0.0969
